Test results reported in article PMC8692159.
These are yes or no findings as the source states them, for the method shown. In cells and extracts the contact can be indirect. Some results given as binding are weak or reduced against the parent protein; the word gives no strength. For some assays here: Where a sequence is shown, tags or fusion partners need not be part of it.

Sequences of proteins named here, by UniProt entry; tags and fusion partners are left off.
UniProt Q9NXR7: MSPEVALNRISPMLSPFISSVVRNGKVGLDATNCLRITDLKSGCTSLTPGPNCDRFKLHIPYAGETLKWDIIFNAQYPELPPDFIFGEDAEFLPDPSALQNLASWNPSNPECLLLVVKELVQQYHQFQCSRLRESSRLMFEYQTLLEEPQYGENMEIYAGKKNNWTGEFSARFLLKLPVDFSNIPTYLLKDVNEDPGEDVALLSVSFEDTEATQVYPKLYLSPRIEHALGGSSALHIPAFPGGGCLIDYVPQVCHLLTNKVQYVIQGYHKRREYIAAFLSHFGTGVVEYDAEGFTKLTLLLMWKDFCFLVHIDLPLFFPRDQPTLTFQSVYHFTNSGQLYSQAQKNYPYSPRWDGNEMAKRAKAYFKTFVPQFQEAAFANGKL

Tests used:
[1] = biological target: Flag-BABAM2 (UniProt Q9NXR7); assay: co-IP; MYC-PPDPF and Flag-BABAM2 plasmids transfected into HEK293T, 48 h; lysis in 50 mM Tris-HCl pH 8.0, 150 mM NaCl, 0.1% NP-40; beads coupled to anti-Flag or anti-MYC antibody, 4 h; western blot
[2] = biological target: endogenously expressed BABAM2 (human (endogenous in A549)) (UniProt Q9NXR7); assay: co-IP; endogenous proteins, A549 lysate; 0.2 ug anti-BABAM2 antibody overnight at 4 C, Protein A/G beads; western blot

binding [1]	binding [2]	Binder
binds	–	MYC-PPDPF (protein, UniProt Q9H3Y8 1-114) MAAIPSSGSLVATHDYYRRRLGSTSSNSSCSSTECPGEAIPHPPGLPKADPGHWWASFFFGKSTLPFMATVLESAEHSEPPQASSSMTACGLARDAPRKQPGGQSSTASAGPPS
–	binds	endogenously expressed PPDPF (protein, UniProt Q9H3Y8 1-114) MAAIPSSGSLVATHDYYRRRLGSTSSNSSCSSTECPGEAIPHPPGLPKADPGHWWASFFFGKSTLPFMATVLESAEHSEPPQASSSMTACGLARDAPRKQPGGQSSTASAGPPS
